Results deposited as PubChem BioAssay AID686938 (Drosophila RNAi Screening Center, 2013)

- Screen: 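Looking for CRAC channel components and the factors controlling them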 (primary screen)
- System: Drosophila S2R+ cells
- Reagents: long dsRNA against Drosophila genes, about 0.25 µg dsRNA per well, roughly 10,000 cells
- Time to read-out: 5 days of knock-down before the calcium assay
- Treatment: thapsigargin (SERCA pump blocker) to empty calcium stores; entry signal taken 4 min after adding it
- Measurement: 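Per-well fluo-4 fluorescence in two replicates, unnormalised, measured in resting cells and 4 min after store depletion by the SERCA blocker thapsigargin; ratio of the two present in few wells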
- Direction: calcium entry signal: higher = stronger calcium signal after store depletion; entry to resting ratio: higher = more calcium entry relative to resting level; resting calcium signal: higher = higher resting calcium signal
- Active means: 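Called when the plate z-score of the entry-to-rest ratio, mean of duplicates, falls below −3; wells with low overall dye signal (Fmax z below −2) or more than five off-targets excluded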
- Meaning of the calls: active = strongly reduced calcium entry; inactive = no strong reduction
The deposit covers about 23,000 reagents; shown is an unselected part of those that have a named target and a result. Of all reagents, 75 (0.33%) are marked active. 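Raw plate signals without normalisation; calls rest on plate z-scores that were not deposited; ratio present for only 364 wells.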 A number with no mark means an inactive call. A plus sign joins genes that one reagent is predicted to hit. Not given: the dose of the treatment.

target gene	dsRNA	calcium entry signal, replicate 1 (fluorescence units)	calcium entry signal, replicate 2 (fluorescence units)	entry to resting ratio	resting calcium signal, replicate 1 (fluorescence units)	resting calcium signal, replicate 2 (fluorescence units)
CG9008	DRSC01889	3.56e7			1.59e7	
Tsp42Ei	DRSC06189	3.62e7	4.28e7		1.73e7	1.94e7
cGlr2	DRSC04017	1.75e7	2.77e7		1.09e7	1.39e7
CG13488	DRSC04133	3.13e7	4.87e7		1.43e7	1.88e7
reb	DRSC06308	3.78e7	3.38e7		2.00e7	1.51e7
bi	DRSC18742	3.25e7	4.04e7		1.50e7	1.75e7
endos	DRSC10658	2.73e7	3.26e7		1.20e7	2.21e7
DopEcR	DRSC08529	4.42e7	4.01e7		3.01e7	1.74e7
ppk31	DRSC13811	3.15e7	3.97e7		1.63e7	1.84e7
CG43366	DRSC04857	4.24e7	5.71e7		2.24e7	2.38e7
CG43366	DRSC04864	4.49e7	5.35e7		2.36e7	2.24e7
CG43254	DRSC12638	3.46e7	4.56e7		1.65e7	2.17e7
CG15472	DRSC18055	2.77e7	4.23e7		1.36e7	1.91e7
Toll-6	DRSC11304	4.76e7	6.33e7		2.27e7	2.40e7
CG5391	DRSC15790	3.85e7	4.28e7		5.10e7	1.75e7
Fgop2	DRSC02016	2.75e7			1.91e7	
fipi	DRSC00465	1.81e7	2.44e7		1.18e7	1.44e7
Pglym78	DRSC16787	2.69e7	2.91e7		1.28e7	1.53e7
obst-J	DRSC10821	3.10e7	5.33e7		1.46e7	2.24e7
nxf4	DRSC12548	3.53e7	3.40e7		1.75e7	1.54e7
CG9568	DRSC03265	3.88e7	3.69e7		1.73e7	1.78e7
IntS12	DRSC15818	2.62e7	3.05e7		1.48e7	1.51e7
Noa36	DRSC16761	5.58e7	5.58e7		2.32e7	2.61e7
CG32152	DRSC22906	3.44e7	3.07e7		1.88e7	1.37e7
CG30087	DRSC21677	4.43e7	4.05e7		2.40e7	1.81e7
CG17190	DRSC15184	2.67e7	3.24e7		3.43e7	1.41e7
toy	DRSC17222	4.86e7	4.87e7		2.09e7	2.08e7
CG8326	DRSC20103	3.47e7	3.20e7		1.69e7	1.59e7
CG11779	DRSC14384	1.65e7	1.73e7		8.54e6	8.71e6
CG15927	DRSC19742	4.34e7	3.96e7		1.90e7	2.07e7
S6kII	DRSC20645	3.42e7	3.75e7		1.88e7	1.61e7
EMC4	DRSC11638	2.25e7	3.53e7		1.12e7	1.32e7
GstD5	DRSC16686	3.08e7	3.17e7		1.53e7	1.55e7
AdoR	DRSC16556	2.34e7	3.74e7		1.34e7	1.73e7
CG10555	DRSC17748	3.13e7	4.30e7		1.77e7	2.22e7
CG10555	DRSC23202	3.57e7	3.52e7		1.84e7	1.69e7
CG34429	DRSC10120	3.13e7	3.86e7		1.70e7	1.67e7
Ldaf1	DRSC17963	4.12e7	4.13e7		1.85e7	1.89e7
gny	DRSC02810	4.78e7			2.34e7	
CG42329	DRSC00373	3.32e7	4.02e7		1.66e7	1.85e7
CG42329	DRSC00682	2.99e7	3.53e7		1.53e7	1.57e7
Pvf1	DRSC20024	3.92e7	4.15e7		1.81e7	1.80e7
Noc3	DRSC12535	2.85e7	3.35e7		1.49e7	1.67e7
CG43174 (retired record) + CG43173 (retired record)	DRSC09517	3.36e7	3.91e7		1.60e7	1.92e7
CG13384	DRSC02258	5.00e7			2.21e7	
CG2082	DRSC12125	3.25e7	3.80e7		1.65e7	1.89e7
CG17777	DRSC18137	3.84e7	5.53e7	2	1.93e7	2.49e7
CG9498	DRSC03235	3.01e7	4.06e7		1.61e7	2.04e7
wash	DRSC06302	2.65e7	2.67e7		1.39e7	1.20e7
CG7945	DRSC10934	4.07e7	4.57e7		1.88e7	3.23e7
flfl	DRSC16474	2.39e7	2.04e7		1.04e7	1.11e7
Cda4	DRSC20623	4.69e7	5.01e7		2.37e7	2.08e7
Cda4	DRSC20641	5.04e7	4.88e7		2.41e7	2.18e7
Cda4	DRSC20642	5.55e7	5.26e7		2.72e7	2.09e7
trx	DRSC17089	2.50e7	2.69e7		1.08e7	1.31e7
Veneno	DRSC16537	4.68e7	3.00e7		2.18e7	1.53e7
CkIalpha	DRSC20231	2.61e7	3.95e7		1.20e7	1.88e7
CkIalpha	DRSC22609	2.33e7	2.04e7		1.36e7	9.71e6
CkIalpha	DRSC23308	3.08e7	2.12e7		1.54e7	9.97e6
